These are yes or no findings as the source states them, for the method shown. For part of these data: In cells and extracts the contact can be indirect. Some binding calls cover weakened binding; strength is not graded here. For part of these data: Tags and fused reporters may be left off the sequences shown.

The chains behind the UniProt entries cited, without tags or fusion partners.
UniProt Q9UQE7: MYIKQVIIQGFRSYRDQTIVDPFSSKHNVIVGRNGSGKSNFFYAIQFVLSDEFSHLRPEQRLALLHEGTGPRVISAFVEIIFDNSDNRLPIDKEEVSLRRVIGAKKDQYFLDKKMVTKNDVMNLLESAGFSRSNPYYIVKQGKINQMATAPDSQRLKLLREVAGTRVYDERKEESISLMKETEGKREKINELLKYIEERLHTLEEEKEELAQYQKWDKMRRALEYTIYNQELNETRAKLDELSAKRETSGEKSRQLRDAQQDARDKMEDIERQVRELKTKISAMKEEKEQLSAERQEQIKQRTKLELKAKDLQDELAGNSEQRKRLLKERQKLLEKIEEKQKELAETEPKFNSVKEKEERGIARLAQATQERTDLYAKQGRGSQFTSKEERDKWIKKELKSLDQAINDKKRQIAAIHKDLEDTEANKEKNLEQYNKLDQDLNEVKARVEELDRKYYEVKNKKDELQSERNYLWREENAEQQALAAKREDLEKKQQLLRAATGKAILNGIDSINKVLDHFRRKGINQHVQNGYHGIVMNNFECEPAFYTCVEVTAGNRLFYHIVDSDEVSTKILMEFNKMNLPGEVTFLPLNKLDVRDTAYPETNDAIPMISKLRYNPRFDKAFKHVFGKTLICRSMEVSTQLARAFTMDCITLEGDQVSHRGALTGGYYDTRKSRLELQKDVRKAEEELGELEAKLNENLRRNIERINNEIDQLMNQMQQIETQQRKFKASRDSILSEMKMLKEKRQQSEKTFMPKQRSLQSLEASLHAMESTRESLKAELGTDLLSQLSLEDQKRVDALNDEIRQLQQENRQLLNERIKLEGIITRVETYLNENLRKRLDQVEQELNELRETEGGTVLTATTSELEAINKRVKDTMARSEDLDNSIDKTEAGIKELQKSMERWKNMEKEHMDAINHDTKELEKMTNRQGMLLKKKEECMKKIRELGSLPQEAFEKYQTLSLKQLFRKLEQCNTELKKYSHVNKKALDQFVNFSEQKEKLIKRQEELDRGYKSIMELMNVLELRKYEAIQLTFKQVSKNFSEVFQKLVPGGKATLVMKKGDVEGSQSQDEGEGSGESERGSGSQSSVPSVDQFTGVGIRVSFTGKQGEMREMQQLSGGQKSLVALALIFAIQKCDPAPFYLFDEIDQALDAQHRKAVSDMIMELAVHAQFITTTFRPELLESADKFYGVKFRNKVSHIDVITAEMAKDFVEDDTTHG

Four molecules from PMC6339671, “NudCL2 is an Hsp90 cochaperone to regulate sister chromatid cohesion by stabilizing cohesin subunits” (Cellular and Molecular Life Sciences: CMLS, 2018) can be followed below.

The target in test [1] is T1, GST-NudCL2 (human) (UniProt Q8WVJ2).
T1 sequence: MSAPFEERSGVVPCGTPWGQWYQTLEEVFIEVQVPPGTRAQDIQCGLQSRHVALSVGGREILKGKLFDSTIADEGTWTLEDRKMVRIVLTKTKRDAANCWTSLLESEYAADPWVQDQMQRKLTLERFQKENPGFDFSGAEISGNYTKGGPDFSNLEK
Kind of test: pull-down; purified GST or GST-NudCL2 protein incubated with HeLa cell lysates; immunoblotting; only the target purified. In general terms: In western blotting, separated proteins are transferred to a membrane and probed.

The target of test [2] is T2, endogenous NudCL2 (human (endogenous in HeLa)) (UniProt Q8WVJ2).
T2 sequence: T1 sequence
Kind of test: co-IP; endogenous proteins; total HeLa lysates (TBSN buffer: 20 mM Tris pH 8.0, 150 mM NaCl, 0.5% Nonidet P-40) immunoprecipitated with anti-NudCL2 or anti-Rad21 antibody or IgG; Western blotting.

For test [3], the target named is T1, GST-NudCL2 (human). Kind of test: pull-down; GST or GST-NudCL2 protein incubated with each of the purified His-tagged cohesin subunits from Sf9 cells; Western analysis; both purified.

With “Smc3, endogenous (from UniProt Q9UQE7 1-1217)”, the binding result (with GST-NudCL2 (human) [1]; in test [2]) was “binds” throughout.

B1: His-Rad21 (protein, UniProt O60216 1-631)
chain: MFYAHFVLSKRGPLAKIWLAAHWDKKLTKAHVFECNLESSVESIISPKVKMALRTSGHLLLGVVRIYHRKAKYLLADCNEAFIKIKMAFRPGVVDLPEENREAAYNAITLPEEFHDFDQPLPDLDDIDVAQQFSLNQSRVEEITMREEVGNISILQENDFGDFGMDDREIMREGSAFEDDDMLVSTTTSNLLLESEQSTSNLNEKINHLEYEDQYKDDNFGEGNDGGILDDKLISNNDGGIFDDPPALSEAGVMLPEQPAHDDMDEDDNVSMGGPDSPDSVDPVEPMPTMTDQTTLVPNEEEAFALEPIDITVKETKAKRKRKLIVDSVKELDSKTIRAQLSDYSDIVTTLDLAPPTKKLMMWKETGGVEKLFSLPAQPLWNNRLLKLFTRCLTPLVPEDLRKRRKGGEADNLDEFLKEFENPEVPREDQQQQHQQRDVIDEPIIEEPSRLQESVMEASRTNIDESAMPPPPPQGVKRKAGQIDPEPVMPPQQVEQMEIPPVELPPEEPPNICQLIPELELLPEKEKEKEKEKEDDEEEEDEDASGGDQDQEERRWNKRTQQMLHGLQRALAKTGAESISLLELCRNTNRKQAAAKFYSFLVLKKQQAIELTQEEPYSDIIATPGPRFHII
Regarding B1, the binding result with GST-NudCL2 (human) [3] is “no binding”.

B2: His-SA2 (protein, UniProt Q8N3U4 1-1231)
chain: MIAAPEIPTDFNLLQESETHFSSDTDFEDIEGKNQKQGKGKTCKKGKKGPAEKGKGGNGGGKPPSGPNRMNGHHQQNGVENMMLFEVVKMGKSAMQSVVDDWIESYKHDRDIALLDLINFFIQCSGCKGVVTAEMFRHMQNSEIIRKMTEEFDEDSGDYPLTMAGPQWKKFKSSFCEFIGVLVRQCQYSIIYDEYMMDTVISLLTGLSDSQVRAFRHTSTLAAMKLMTALVNVALNLSINMDNTQRQYEAERNKMIGKRANERLELLLQKRKELQENQDEIENMMNAIFKGVFVHRYRDAIAEIRAICIEEIGIWMKMYSDAFLNDSYLKYVGWTMHDKQGEVRLKCLTALQGLYYNKELNSKLELFTSRFKDRIVSMTLDKEYDVAVQAIKLLTLVLQSSEEVLTAEDCENVYHLVYSAHRPVAVAAGEFLYKKLFSRRDPEEDGMMKRRGRQGPNANLVKTLVFFFLESELHEHAAYLVDSMWDCATELLKDWECMNSLLLEEPLSGEEALTDRQESALIEIMLCTIRQAAECHPPVGRGTGKRVLTAKEKKTQLDDRTKITELFAVALPQLLAKYSVDAEKVTNLLQLPQYFDLEIYTTGRLEKHLDALLRQIRNIVEKHTDTDVLEACSKTYHALCNEEFTIFNRVDISRSQLIDELADKFNRLLEDFLQEGEEPDEDDAYQVLSTLKRITAFHNAHDLSKWDLFACNYKLLKTGIENGDMPEQIVIHALQCTHYVILWQLAKITESSSTKEDLLRLKKQMRVFCQICQHYLTNVNTTVKEQAFTILCDILMIFSHQIMSGGRDMLEPLVYTPDSSLQSELLSFILDHVFIEQDDDNNSADGQQEDEASKIEALHKRRNLLAAFCKLIVYTVVEMNTAADIFKQYMKYYNDYGDIIKETMSKTRQIDKIQCAKTLILSLQQLFNEMIQENGYNFDRSSSTFSGIKELARRFALTFGLDQLKTREAIAMLHKDGIEFAFKEPNPQGESHPPLNLAFLDILSEFSSKLLRQDKRTVYVYLEKFMTFQMSLRREDVWLPLMSYRNSLLAGGDDDTMSVISGISSRGSTVRSKKSKPSTGKRKVVEGMQLSLTEESSSSDSMWLSREQTLHTPVMMQTPQLTSTIMREPKRLRPEDSFMSVYPMQTEHHQTPLDYNRRGTSLMEDDEEPIVEDVMMSSEGRIEDLNEGMDFDTMDIDLPPSKNRRERTELKPDFFDPASIMDESVLGVSMF
With B2, in the test with GST-NudCL2 (human) [3], the binding entry is “no binding”.

B3: Smc1α, endogenous (protein, UniProt Q14683 1-1233)
chain: MGFLKLIEIENFKSYKGRQIIGPFQRFTAIIGPNGSGKSNLMDAISFVLGEKTSNLRVKTLRDLIHGAPVGKPAANRAFVSMVYSEEGAEDRTFARVIVGGSSEYKINNKVVQLHEYSEELEKLGILIKARNFLVFQGAVESIAMKNPKERTALFEEISRSGELAQEYDKRKKEMVKAEEDTQFNYHRKKNIAAERKEAKQEKEEADRYQRLKDEVVRAQVQLQLFKLYHNEVEIEKLNKELASKNKEIEKDKKRMDKVEDELKEKKKELGKMMREQQQIEKEIKEKDSELNQKRPQYIKAKENTSHKIKKLEAAKKSLQNAQKHYKKRKGDMDELEKEMLSVEKARQEFEERMEEESQSQGRDLTLEENQVKKYHRLKEEASKRAATLAQELEKFNRDQKADQDRLDLEERKKVETEAKIKQKLREIEENQKRIEKLEEYITTSKQSLEEQKKLEGELTEEVEMAKRRIDEINKELNQVMEQLGDARIDRQESSRQQRKAEIMESIKRLYPGSVYGRLIDLCQPTQKKYQIAVTKVLGKNMDAIIVDSEKTGRDCIQYIKEQRGEPETFLPLDYLEVKPTDEKLRELKGAKLVIDVIRYEPPHIKKALQYACGNALVCDNVEDARRIAFGGHQRHKTVALDGTLFQKSGVISGGASDLKAKARRWDEKAVDKLKEKKERLTEELKEQMKAKRKEAELRQVQSQAHGLQMRLKYSQSDLEQTKTRHLALNLQEKSKLESELANFGPRINDIKRIIQSREREMKDLKEKMNQVEDEVFEEFCREIGVRNIREFEEEKVKRQNEIAKKRLEFENQKTRLGIQLDFEKNQLKEDQDKVHMWEQTVKKDENEIEKLKKEEQRHMKIIDETMAQLQDLKNQHLAKKSEVNDKNHEMEEIRKKLGGANKEMTHLQKEVTAIETKLEQKRSDRHNLLQACKMQDIKLPLSKGTMDDISQEEGSSQGEDSVSGSQRISSIYAREALIEIDYGDLCEDLKDAQAEEEIKQEMNTLQQKLNEQQSVLQRIAAPNMKAMEKLESVRDKFQETSDEFEAARKRAKKAKQAFEQIKKERFDRFNACFESVATNIDEIYKALSRNSSAQAFLGPENPEEPYLDGINYNCVAPGKRFRPMDNLSGGEKTVAALALLFAIHSYKPAPFFVLDEIDAALDNTNIGKVANYIKEQSTCNFQAIVISLKEEFYTKAESLIGVYPEQGDCVISKVLTFDLTKYPDANPNPNEQ
On to B3, for which the binding result (with GST-NudCL2 (human) [1]; in test [2]) was “binds” throughout.
